Earlier results, collected in US5104814A, “Assay kit and methods for neuroleptic drugs” (Schering Corporation, priority 1990, dated 1992).

Tested on: D-1 receptor
Details: reported, Life Sciences 23, 551 (1978); cited from earlier work

Substance: ^3 H-flupentixol
- non-specific binding as share of total binding: ~74%

Substance: ^3 H-piflutixol
- non-specific binding as share of total binding: about 66%
